# Values quoted from earlier work, collected in patent US20090004248A1, “DUAL PORTION DOSAGE LOZENGE FORM” (priority 2007, published 2009).
# Residues, ends and D or L forms follow the SMILES beside them.
# Details: level of sweetness relative to sucrose; sucrose is the standard with index 1
row,SMILES,sweetness index
1,O=C(CO)[C@@H](O)[C@H](O)[C@H](O)CO [Fructose],1.2-1.7
2,OC[C@@H](O)[C@@H](O)[C@H](O)[C@H](O)CO [Mannitol],0.7
3,OC[C@H]1O[C@H](O[C@]2(CCl)O[C@H](CCl)[C@@H](O)[C@@H]2O)[C@H](O)[C@@H](O)[C@H]1Cl [Sucralose],600
4,OC[C@@H](O)[C@@H](O)[C@H](O)[C@@H](O)CO [Sorbitol],0.54-0.7
5,OC[C@H]1O[C@@](CO)(O[C@H]2O[C@H](CO)[C@@H](O)[C@H](O)[C@H]2O)[C@@H](O)[C@@H]1O [Sucrose],1
6,COC(=O)[C@H](Cc1ccccc1)NC(=O)[C@@H](N)CC(=O)O [Aspartame] (H-Asp-Phe-OMe),180
7,CC1=CC(=O)[N-]S(=O)(=O)O1.[K+] [Acesulfame K],200
8,O=C1NS(=O)(=O)c2ccccc21 [Saccharin],300
9,OC[C@@H](O)[C@H](O)[C@@H](O)CO [Xylitol],1.0
